Article PMC5651008, “The Copper Homeostasis Transcription Factor CopR Is Involved in H2O2 Stress in Lactobacillus plantarum CAUH2”

Biological target: T1, CopR (CopRHis6) (Lactobacillus plantarum CAUH2) (UniProt F9UU50)
T1 sequence (looked up, limits assumed): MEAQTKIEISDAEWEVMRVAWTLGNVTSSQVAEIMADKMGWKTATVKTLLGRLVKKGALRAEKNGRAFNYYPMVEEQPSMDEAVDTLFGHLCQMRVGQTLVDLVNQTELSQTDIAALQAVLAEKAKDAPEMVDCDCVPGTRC
Test: EMSA
Conditions: 5-50 uM Cu2+ series, binding weakens with increasing Cu2+ (third dose 25 uM in Methods, 20 uM in legend); 20 uL: 1x LightShift binding buffer, 50 ng/uL poly(dI-dC), 2.5% glycerol, 0.05% NP-40, 5 mM MgCl2, 20 fmol probe, 2.5 ug CopRHis6; salt and temperature not stated; recombinant protein; protein details: C-terminal His6; label: 3' biotin

“GTGTTTTTCTTGACTTTTATCGTCTACAATTGTAAACTTTAGCCATAAATTACAGATGTAGACAAT (double strand) [copB promoter probe (EMSA copB-F/-R)]”: binds more weakly.

For at least one entry, the source does not settle the construct or the ends of the probe. Weaker means in comparison with the reference protein, sequence or condition of that experiment. Tags and fusion partners may be left off the protein sequences shown.
